No constants are given. Whether binding was seen depends on the method and setting. Binding seen in cells or lysates may run through a third protein. A yes stands for co-enrichment or nearness to the bait. Other partners may have been found. Sequences can lack the tags named with a protein.
T1: NUP85-MYC (NUCLEOPORIN 85, expressed from NUP85pro:NUP85-MYC) (Arabidopsis thaliana) (UniProt Q8RXH2)
T1 sequence: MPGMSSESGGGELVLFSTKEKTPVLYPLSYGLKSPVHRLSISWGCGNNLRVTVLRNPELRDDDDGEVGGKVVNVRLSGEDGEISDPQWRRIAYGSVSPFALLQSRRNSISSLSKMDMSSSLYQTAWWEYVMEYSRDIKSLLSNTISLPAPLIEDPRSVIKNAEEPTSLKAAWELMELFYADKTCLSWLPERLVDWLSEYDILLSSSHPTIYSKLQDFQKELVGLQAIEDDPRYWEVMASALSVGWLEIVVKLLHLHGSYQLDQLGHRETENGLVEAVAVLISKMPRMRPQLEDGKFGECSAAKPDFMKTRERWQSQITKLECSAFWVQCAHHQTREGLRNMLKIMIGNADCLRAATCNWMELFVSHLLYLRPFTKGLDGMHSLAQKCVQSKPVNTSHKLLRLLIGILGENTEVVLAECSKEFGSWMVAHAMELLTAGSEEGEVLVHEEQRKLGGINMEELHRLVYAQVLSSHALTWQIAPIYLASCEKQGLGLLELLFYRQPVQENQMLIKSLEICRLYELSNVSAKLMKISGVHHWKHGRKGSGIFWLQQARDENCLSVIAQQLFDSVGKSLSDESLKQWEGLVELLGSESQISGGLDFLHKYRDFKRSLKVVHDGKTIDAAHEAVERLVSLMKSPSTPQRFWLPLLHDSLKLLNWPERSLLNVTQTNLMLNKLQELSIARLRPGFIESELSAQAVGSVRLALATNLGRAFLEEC

Sequences of proteins named here, by UniProt entry; tags and fusion partners are left off.
UniProt Q9SR02: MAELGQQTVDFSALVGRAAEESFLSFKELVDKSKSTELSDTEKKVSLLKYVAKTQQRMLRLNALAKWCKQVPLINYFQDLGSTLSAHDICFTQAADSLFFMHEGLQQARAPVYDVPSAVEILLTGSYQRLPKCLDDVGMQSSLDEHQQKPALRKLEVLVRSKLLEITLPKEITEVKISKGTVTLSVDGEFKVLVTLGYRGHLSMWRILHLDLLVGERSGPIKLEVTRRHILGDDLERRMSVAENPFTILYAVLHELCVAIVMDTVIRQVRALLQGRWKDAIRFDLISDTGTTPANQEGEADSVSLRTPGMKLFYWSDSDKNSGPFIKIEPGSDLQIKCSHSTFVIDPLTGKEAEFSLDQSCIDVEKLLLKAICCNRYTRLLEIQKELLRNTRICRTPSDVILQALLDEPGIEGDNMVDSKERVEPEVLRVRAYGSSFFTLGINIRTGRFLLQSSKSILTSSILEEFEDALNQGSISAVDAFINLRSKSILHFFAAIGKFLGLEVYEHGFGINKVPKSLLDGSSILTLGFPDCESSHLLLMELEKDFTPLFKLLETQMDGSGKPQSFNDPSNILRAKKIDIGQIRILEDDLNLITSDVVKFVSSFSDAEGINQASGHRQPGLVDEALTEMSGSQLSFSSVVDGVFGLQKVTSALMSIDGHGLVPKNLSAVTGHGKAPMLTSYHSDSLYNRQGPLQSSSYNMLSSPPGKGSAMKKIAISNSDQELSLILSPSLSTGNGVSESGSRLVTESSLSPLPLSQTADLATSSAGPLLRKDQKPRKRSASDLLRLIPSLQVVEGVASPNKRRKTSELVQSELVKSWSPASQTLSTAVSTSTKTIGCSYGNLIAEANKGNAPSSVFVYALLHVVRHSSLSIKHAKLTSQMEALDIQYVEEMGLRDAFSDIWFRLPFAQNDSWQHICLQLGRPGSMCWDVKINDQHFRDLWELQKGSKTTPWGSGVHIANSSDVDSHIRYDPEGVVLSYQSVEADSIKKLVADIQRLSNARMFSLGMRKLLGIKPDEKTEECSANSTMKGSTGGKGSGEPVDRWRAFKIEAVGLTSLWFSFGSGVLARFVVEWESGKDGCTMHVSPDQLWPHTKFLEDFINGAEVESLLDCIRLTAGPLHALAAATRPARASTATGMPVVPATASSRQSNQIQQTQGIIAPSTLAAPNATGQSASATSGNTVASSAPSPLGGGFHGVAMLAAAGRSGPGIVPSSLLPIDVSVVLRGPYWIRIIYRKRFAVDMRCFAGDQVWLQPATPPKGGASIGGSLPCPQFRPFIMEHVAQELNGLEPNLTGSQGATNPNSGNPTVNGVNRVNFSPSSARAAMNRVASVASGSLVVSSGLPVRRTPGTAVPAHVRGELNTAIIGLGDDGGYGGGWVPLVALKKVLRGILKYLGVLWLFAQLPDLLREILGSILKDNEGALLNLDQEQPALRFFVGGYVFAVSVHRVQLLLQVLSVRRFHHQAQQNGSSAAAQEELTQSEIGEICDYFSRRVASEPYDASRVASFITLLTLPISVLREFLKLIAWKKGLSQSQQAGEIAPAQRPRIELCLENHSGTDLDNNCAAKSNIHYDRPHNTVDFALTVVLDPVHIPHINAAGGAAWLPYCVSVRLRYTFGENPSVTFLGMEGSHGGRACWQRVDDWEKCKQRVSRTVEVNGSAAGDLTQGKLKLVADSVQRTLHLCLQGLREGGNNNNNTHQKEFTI

B1: NUP160 (protein, UniProt Q9C811 1-1495)
chain: MEENRRNPSAGMEVPVAGGGNVVKWIEISVPSPSVSSSSIGANSSEDNECVQLPLSEDYASSSVIGEPSISFVWRINKTSPNALELLQLSAKSGFPITGLRFVFAQTLSPFAFVYADEGGDSGRLVYFLYSLTPSGVVYVLKLSNTLAYKSGSVFPLDHLIHLDVRPYLNESRVTSVAASPGFIFLGRSDGCVSCFQPIVYFQKSSGFHQELRDDTGFGRLGTVVAAVQDLFISEVHGRNYLCVLHADGALRVWDILTYSRVLCQSIAAKNLEGVMCVRLWLGKADYDSGIIPLAVLYRKSMNDSMDVITVYGLHFSSAEGIALSLDSGLQNIPLEEGELRDVRFTSDKIWTLKANELTSYMLCQKSSTMEAQSYTLQEDYISEQLFLSSRSSSHDLLLTTHSLFSSAKDQIMGFISSIFLRRLLCPGIFHNVALRLTLLDHNKNWTDSEFQSLSLDELTSEILLLVEHEVTAETSISVFHWWKNFCTSYLHHWCSNNEPRTLLVQSDVIGLVRNNSVSLFFRLENAEHSLGGSSSEHSNLTSLDLGVSHSDHEILAEVLRCTSKISKQWGGAPYAMYYESITGRPIISSDEIVPRLVNILESGYSTTIGQRTWSDLGADRAWEKELEAHKNLRTFSIDMLLSLSALCQRAGSWEKVFTIMEHYLQYLVPKKSMQKNDGEALSDICSSILVQATSQFVKVMFESAFDIFLLISYLLNIAGQVNMSQQDICKLRLELLPMIQDIVSEWLIILFFVTTPAESTSMEDFSLKLSSLQIDSSIDKRSWNAMLGKCGFSLAFILLFSDRSCIVDGRFNLRYLPSSQIITSLVQNFISWIRYSKTGDDSSSLLRRSTELSLRLIRNGQSDAVERILVVVEASLRGEKTFGCSQDTSGDWCLLQHLRGCCLLDQVQRGASGILRERKIIDAIRCFFRASSGEGSWKALHSLSKEAGFSPATTGPSILDGSTSSAAWKLHYYEWAMQIFERYNISEGACQFAYAALEQVDDAYNFIEMTEEFDPTKAATYTRGRLWANVFKFTLDLNLLNDAYCAIISNPDEEIKRICLRRFIIVLFECGKTKILSDGHLPFIGLTEKITQELFWKAGRSDIMMKPNPYKLLYAYEMRRHNWRMAASYMYQFSARLRSEGACKDYKHMSLVLQERLNGLSAAMNALALVHPGYAWIDPVPEETTRYPVKKARRAEEEQLRSNDQPKGEKSCIDIEKLQNEFVFTTAEYMLSLKNFGWTYSGLEKPPSDLVDLLVQANLYDMAFTVVLKFWRGSALKRELEKIFENMAIKCCPAKGTLWSSPNLMLTSNDEEVTHSPDRSPADQGSKLAGDWEILEVYLKRYIDIHARLPVSVASTLLQADSCIELPLWLIQMFKDGQKEKALGMAGQEASPASLFQLYVDYGRLTEATNLLLEYMESFASSKPAEVLKRKKVSGVWFPYTTVERLWWELEKTMNSGRMVEQCHKLKEQLHHALLNHLKLLKVDSNDAVSSATG

molecular target: T1, NUP85-MYC (NUCLEOPORIN 85, expressed from NUP85pro:NUP85-MYC) (Arabidopsis thaliana); experiment: affinity purification with mass spectrometry; anti-MYC agarose beads on total protein extract of 12-day-old NUP85pro:NUP85-MYC transgenic seedlings, WT seedlings as negative control; 4 h at 4°C; two independent IP-MS experiments

How did the binding turn out when Sec13 was run?
The binding was “binds”.

For MED14 (from UniProt Q9SR02 1-1703), which binding is on record?
The binding was “binds”.

B1 was tested. Which binding did it give?
Its binding is “binds”.
